Reference: paper PMC4944146
These are yes or no findings as the source states them, for the method shown. For some of these results: In cells and extracts the contact can be indirect. Some binding calls cover weakened binding; strength is not graded here. For some of these results: Sequences can lack the tags named with a protein.

The chains behind the UniProt entries cited, without tags or fusion partners. Residues count along the entry.
UniProt Q9ZNZ7, residues 106-1622: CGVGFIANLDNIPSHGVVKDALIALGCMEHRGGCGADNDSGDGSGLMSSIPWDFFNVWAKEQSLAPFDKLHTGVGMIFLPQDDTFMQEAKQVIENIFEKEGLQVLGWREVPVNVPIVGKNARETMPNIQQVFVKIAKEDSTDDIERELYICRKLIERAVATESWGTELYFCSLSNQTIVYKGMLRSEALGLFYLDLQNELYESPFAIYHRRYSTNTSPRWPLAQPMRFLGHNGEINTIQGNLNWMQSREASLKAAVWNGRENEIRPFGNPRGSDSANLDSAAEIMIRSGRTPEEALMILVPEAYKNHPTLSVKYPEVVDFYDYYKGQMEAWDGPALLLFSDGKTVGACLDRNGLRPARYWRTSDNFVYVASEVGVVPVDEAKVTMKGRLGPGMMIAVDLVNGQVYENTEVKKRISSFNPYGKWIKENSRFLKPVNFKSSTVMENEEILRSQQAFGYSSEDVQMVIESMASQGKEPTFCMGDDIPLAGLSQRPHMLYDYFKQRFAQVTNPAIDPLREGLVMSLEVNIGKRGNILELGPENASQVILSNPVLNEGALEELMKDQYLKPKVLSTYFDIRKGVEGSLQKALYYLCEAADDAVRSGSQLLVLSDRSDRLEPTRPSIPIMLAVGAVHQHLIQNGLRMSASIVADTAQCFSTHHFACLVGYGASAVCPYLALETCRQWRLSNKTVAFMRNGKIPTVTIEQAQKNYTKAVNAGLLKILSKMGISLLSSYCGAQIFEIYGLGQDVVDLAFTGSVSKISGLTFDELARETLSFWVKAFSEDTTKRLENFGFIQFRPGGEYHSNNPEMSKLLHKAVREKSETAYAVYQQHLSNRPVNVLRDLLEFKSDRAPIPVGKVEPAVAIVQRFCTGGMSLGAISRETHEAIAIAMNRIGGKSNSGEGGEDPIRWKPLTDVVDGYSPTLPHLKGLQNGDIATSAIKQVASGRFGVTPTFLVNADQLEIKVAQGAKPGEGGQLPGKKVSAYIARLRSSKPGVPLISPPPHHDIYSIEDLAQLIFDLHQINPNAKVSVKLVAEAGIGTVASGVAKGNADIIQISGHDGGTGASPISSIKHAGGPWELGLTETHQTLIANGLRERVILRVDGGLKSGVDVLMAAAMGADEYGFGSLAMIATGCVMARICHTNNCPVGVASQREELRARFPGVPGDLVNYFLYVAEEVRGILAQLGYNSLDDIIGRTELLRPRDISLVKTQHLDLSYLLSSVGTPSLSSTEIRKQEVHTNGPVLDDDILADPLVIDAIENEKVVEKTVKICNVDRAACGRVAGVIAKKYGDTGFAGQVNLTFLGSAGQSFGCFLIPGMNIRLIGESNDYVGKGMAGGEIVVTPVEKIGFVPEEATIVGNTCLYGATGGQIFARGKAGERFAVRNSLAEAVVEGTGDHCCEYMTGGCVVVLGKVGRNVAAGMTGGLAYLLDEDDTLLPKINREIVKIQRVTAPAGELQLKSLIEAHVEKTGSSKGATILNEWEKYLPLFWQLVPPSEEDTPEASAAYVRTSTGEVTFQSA

How the values were obtained:
[1] = molecular target: T1, ACR11, ACT domain-containing family protein (Arabidopsis thaliana (endogenous in rosette leaves)) (UniProt Q9FZ47); test: native gel or EMSA; BN-PAGE (4–13% gradient gels, 4 °C) of soluble proteins from rosette leaves of wild-type, acr11, acr12 and ACR11-FLAG plants, followed by immunoblot with anti-Fd-GOGAT and anti-ACR11 antibodies
T1 sequence: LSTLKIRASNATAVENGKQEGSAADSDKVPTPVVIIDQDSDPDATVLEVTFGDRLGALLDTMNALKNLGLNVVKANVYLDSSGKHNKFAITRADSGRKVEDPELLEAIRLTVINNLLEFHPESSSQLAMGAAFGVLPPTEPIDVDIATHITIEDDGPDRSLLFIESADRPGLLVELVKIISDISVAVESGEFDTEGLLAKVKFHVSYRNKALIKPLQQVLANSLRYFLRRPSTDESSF

[2] = molecular target: T2, ACR11-FLAG (ACR11 with a FLAG tag inserted between A75 and D76) (Arabidopsis thaliana) (UniProt Q9FZ47); test: as above
T2 sequence: T1 sequence

[3] = molecular target: T2, ACR11-FLAG (ACR11 with a FLAG tag inserted between A75 and D76) (Arabidopsis thaliana); test: co-IP; Soluble leaf proteins of wild-type and ACR11-FLAG plants incubated with anti-DYKDDDDK beads for 15 min at 25 °C; three washes with BN-solubilization buffer; eluted with DYKDDDDK peptide or SDS buffer; immunoblot
[4] = molecular target: T1, ACR11, ACT domain-containing family protein (Arabidopsis thaliana (endogenous in rosette leaves)); test: native gel or EMSA; BN-PAGE coupled with LC-MS/MS of gel slices; Arabidopsis intact chloroplasts (1% β-dodecyl maltoside, 57 slices) and chloroplast stroma (20 μg, 56 slices); emPAI-based protein migration profiles compared

binding [1]: binds
binding [2]: binds
binding [3]: binds
binding [4]: binds
Substance: Glu1-encoded ferredoxin-dependent glutamate synthase (Fd-GOGAT) (from UniProt Q9ZNZ7 106-1622) (enzyme)
